According to paper PMC9997082:
Results are given in words; binding and its absence hold for the method and conditions named. Some results given as binding are weak or reduced against the parent protein; the word gives no strength. Sequences can lack the tags named with a protein.

Target: T1, recombinant mouse His-tagged IL2-RB (mouse (methods; results and legend say human)) (UniProt P16297)
T1 sequence: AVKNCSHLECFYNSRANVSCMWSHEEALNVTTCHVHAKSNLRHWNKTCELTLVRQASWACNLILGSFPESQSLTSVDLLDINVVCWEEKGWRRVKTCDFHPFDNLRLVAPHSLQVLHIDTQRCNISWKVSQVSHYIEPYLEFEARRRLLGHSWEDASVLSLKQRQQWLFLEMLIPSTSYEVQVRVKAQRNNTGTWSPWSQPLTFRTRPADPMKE
Assay: ELISA; plates coated with 2 µg/mL His-tagged IL2-RB overnight at 4°C; serially diluted antibody-cytokine chimera or IL2-Fc 2 h at 37°C; detection with HRP anti-mouse IgG H+L; both purified

binding: binds
B1: recombinant mouse Fc-tagged IL2 (IL2-Fc) (Fc fusion, UniProt P04351 21-169)
chain: APTSSSTSSSTAEAQQQQQQQQQQQQHLEQLLMDLQELLSRMENYRNLKLPRMLTFKFYLPKQATELKDLQCLEDELGPLRHVLDLTQSKSFQLEDAENFISNIRVTVVKLKGSDNTFECQFDDESATVVDFLRRWIAFCQSIISTSPQ
